Data as given in patent publication US20250368735A1 (AKESO BIOPHARMA, published 2025).
No constants are given. Whether binding was seen depends on the method and setting. Some entries that bind do so weakly or less than the wild type.

The chains behind the UniProt entries cited, without tags or fusion partners. Residues count along the entry.
UniProt Q08722, residues 19-323: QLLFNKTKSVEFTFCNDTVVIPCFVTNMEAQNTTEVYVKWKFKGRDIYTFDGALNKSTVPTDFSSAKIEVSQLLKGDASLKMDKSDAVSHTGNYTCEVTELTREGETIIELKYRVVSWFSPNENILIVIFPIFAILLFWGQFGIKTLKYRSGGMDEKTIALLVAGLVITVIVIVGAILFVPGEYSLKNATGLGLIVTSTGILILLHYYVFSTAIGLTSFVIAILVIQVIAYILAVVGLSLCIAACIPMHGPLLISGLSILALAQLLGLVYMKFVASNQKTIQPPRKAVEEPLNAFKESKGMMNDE

Target: CD47 on the cell membrane surface (CHO-K1-CLDN18.2-CD47 cells, 3T3-CD47 cells, human red blood cells, human T cells and B cells) (human) (UniProt Q08722)
Experiment: indirect ELISA screening with 3T3-CD47 cells as antigen

binding: binds
B1: 6F7 (antibody, V domains shown)
VH: QVQLQQPGAELVRPGASVKLSCKASGYTFTSYWMNWVKQRPGQGLEWIGMIDPSDSETHNNQMFKDKATLTVDKSSNTAYMHLSSLTSEDSAVYHCARLYRWYFDVWGAGTTVTVSS
VL: NIVMTQSPKSMSMSLGERVTLSCKASEIVGTYVSWFQQKPHQSPKLLIYGASNRYTGVPDRFTGSGSATDFTLTISNVQAEDLADYHCGQSYNFPYTFGGGTKLEIK
notes: Mouse hybridoma antibody; also called anti-CD47 antibody 6F7; monoclonal antibody secreted by hybridoma cell line LT012
